Reference: patent US20030157685A1
No constants are given. Whether binding was seen depends on the method and setting. In cells and extracts the contact can be indirect. Some binding calls cover weakened binding; strength is not graded here.

Tests used:
[1] = target: Mxi2 as a hemaglutinin epitope-tagged fusion (Mxi2-HA), expressed in 293 cells (UniProt Q16539); assay: co-immunoprecipitation from 293 cells with anti-Omi polyclonal antibody, anti-HA blot
[2] = target: Mxi2 as a hemaglutinin epitope-tagged fusion (Mxi2-HA), expressed in 293 cells (UniProt Q16539); assay: co-immunoprecipitation from 293 cells with anti-Omi antibodies; phospho-specific antibody blot

binding [1]: binds | binding [2]: binds
B1: endogenous Omi protein precipitated from 293 cells with the anti-Omi polyclonal antibody (enzyme)
chain: MFFNYFAYMAQCTPLFAFTVFHLIWGCNNNFFHDYDVFFLPFTVFNGLVNGLEGNSIPSPRKEFSACAIGCKVYITGGRGAGWSLRAWRALGGIRWGRRPRLTPDLRALLTSGTSDPRARVTYGTPSLWARLSVGVTEPRACLTSGTPGPRAQLTAVTPDTRTREASENSGTRSRAWLAVALGAGGAVLLLLWGGGRGPPAVLAAVPSPPPASPRSQYNFIADVVEKTAPAVVYIEILDRHPFLGREVPISNGSGFVVAADGLIVTNAHVVADRRRVRVRLLSGDTYEAVVTAVDPVADIATLRIQTKEPLPTLPLGRSADVRQGEFVVAMGSPFALQNTITSGIVSSAQRPARDLGLPQTNVEYIQTDAAIDFGNSGGPLVNLDGEVIGVNTMKVTAGISFAIPSDRLREFLHRGEKKNSSSGISGSQRRYIGVMMLTLSPSILAELQLREPSFPDVQHGVLIHKVILGSPAHRAGLRPGDVILAIGEQMVQNAEDVYEAVRTQSQLAVQIRRGRETLTLYVTPEVTE
